The values below come from the supplement of paper PMC10849652.

Chains of the proteins cited; added tags and fusions are not shown. Lines headed by an entry give the natural chain unless they say otherwise; changes in a name come on top.
UniProt Q9H7Z7: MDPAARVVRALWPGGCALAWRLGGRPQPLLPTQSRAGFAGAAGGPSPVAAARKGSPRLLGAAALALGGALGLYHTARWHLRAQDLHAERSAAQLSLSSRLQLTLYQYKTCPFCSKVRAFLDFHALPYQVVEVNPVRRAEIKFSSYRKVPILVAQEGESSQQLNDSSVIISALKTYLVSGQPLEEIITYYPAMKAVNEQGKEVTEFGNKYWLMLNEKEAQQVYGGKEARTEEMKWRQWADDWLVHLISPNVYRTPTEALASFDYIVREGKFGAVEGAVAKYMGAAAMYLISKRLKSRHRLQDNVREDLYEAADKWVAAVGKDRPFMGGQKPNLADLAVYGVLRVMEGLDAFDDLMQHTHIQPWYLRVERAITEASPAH
UniProt P20742, whole entry, looked up: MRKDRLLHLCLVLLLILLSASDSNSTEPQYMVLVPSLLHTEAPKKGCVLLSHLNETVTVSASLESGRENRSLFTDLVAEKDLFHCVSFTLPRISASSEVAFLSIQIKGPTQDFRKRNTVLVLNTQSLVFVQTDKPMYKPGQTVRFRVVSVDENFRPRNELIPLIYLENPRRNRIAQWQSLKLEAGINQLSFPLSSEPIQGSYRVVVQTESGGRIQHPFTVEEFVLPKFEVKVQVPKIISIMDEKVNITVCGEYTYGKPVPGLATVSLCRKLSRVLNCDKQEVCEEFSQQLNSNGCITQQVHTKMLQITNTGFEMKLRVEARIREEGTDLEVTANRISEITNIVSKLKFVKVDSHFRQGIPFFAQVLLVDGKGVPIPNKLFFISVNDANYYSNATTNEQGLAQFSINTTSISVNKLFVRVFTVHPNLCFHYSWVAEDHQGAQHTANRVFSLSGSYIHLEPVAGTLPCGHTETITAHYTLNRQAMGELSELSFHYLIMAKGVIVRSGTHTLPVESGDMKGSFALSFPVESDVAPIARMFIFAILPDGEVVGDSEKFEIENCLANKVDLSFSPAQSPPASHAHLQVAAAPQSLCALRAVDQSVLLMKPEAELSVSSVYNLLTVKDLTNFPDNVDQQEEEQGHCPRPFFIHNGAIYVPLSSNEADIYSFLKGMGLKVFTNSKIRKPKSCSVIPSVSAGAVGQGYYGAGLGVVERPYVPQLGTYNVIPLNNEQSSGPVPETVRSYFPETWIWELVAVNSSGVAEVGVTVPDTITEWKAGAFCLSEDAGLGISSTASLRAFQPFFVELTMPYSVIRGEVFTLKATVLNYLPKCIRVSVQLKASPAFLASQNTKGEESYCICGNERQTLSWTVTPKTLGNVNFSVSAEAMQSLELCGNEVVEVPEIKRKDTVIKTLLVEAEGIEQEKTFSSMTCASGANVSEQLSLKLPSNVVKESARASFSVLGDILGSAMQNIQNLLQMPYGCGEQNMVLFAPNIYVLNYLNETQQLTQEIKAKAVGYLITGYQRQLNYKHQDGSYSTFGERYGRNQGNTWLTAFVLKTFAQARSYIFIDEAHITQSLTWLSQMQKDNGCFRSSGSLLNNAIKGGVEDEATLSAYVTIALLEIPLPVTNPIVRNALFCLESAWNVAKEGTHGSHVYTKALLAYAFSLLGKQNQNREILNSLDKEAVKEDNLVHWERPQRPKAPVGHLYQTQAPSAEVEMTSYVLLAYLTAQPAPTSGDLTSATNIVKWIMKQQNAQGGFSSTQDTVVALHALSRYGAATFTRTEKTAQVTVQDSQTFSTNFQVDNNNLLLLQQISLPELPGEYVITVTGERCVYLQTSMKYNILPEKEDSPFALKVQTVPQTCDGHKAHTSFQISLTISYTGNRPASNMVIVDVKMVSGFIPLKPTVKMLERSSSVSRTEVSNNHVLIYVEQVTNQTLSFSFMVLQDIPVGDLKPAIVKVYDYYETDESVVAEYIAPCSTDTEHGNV
UniProt P15151: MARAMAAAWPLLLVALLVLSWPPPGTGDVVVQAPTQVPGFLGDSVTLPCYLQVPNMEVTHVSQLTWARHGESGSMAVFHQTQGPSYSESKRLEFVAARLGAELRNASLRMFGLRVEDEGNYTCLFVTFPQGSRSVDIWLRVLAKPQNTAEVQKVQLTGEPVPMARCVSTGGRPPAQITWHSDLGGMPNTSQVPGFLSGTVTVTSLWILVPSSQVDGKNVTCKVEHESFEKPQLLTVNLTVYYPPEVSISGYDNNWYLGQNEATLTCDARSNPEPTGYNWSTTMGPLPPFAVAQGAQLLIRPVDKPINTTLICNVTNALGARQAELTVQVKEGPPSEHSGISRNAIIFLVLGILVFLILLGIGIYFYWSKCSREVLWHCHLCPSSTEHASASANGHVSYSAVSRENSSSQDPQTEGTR
UniProt Q8NDX1: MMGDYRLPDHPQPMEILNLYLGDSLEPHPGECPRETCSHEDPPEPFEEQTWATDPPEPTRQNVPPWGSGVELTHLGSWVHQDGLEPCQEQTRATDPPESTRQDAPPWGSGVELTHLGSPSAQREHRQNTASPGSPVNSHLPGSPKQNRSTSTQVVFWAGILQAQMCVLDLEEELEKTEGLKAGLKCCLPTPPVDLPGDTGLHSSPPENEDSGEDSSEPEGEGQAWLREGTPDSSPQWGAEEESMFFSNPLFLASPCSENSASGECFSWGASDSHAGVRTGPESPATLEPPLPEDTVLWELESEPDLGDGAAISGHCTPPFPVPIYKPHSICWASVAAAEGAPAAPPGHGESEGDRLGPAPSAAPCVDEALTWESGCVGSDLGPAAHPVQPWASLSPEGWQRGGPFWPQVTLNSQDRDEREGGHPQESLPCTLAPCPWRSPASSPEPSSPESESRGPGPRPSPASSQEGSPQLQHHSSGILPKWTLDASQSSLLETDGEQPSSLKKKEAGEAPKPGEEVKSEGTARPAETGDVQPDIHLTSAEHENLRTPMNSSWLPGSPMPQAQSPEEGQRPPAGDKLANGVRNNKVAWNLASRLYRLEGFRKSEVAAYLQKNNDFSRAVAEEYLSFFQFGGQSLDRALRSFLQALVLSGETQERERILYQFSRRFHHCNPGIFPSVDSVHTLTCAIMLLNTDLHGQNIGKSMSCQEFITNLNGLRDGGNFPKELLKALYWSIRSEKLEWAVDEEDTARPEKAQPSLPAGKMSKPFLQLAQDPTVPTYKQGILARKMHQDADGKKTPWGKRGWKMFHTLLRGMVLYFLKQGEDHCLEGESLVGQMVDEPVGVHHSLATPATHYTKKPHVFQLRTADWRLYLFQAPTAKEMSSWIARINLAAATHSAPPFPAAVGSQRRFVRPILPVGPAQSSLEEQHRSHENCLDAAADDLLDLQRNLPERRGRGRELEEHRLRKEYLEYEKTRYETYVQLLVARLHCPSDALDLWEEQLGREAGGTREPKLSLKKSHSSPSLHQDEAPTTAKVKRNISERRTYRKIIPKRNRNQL
UniProt P25789: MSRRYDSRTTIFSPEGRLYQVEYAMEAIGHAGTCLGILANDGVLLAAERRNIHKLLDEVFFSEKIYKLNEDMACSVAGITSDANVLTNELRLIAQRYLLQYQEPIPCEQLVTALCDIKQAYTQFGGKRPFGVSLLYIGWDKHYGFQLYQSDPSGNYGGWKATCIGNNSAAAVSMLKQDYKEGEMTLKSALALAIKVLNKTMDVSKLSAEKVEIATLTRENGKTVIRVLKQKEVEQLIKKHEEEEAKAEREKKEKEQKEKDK
UniProt Q15269: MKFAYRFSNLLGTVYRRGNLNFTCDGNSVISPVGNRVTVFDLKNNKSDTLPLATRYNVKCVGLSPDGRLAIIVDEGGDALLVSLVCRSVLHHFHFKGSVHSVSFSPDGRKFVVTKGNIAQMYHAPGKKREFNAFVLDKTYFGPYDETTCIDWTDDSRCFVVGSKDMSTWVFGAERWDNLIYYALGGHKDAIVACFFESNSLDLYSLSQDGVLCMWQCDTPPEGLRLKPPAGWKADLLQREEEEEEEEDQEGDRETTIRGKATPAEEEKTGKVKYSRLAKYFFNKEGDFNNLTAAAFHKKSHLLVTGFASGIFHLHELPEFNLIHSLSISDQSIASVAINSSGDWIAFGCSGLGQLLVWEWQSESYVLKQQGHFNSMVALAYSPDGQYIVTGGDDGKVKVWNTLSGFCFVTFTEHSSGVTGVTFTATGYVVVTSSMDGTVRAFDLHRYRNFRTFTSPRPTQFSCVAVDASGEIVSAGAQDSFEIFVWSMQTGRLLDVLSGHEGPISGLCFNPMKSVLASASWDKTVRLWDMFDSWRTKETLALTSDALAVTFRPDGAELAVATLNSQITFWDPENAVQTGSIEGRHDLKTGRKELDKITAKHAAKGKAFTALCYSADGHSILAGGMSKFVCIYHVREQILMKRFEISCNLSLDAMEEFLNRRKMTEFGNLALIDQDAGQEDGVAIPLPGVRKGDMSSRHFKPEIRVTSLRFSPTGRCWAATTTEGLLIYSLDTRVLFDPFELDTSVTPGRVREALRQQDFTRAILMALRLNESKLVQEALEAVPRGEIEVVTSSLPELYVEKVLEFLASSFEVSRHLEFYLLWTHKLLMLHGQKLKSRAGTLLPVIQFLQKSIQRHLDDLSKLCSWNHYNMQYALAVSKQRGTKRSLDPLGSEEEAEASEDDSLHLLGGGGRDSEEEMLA
UniProt P08575: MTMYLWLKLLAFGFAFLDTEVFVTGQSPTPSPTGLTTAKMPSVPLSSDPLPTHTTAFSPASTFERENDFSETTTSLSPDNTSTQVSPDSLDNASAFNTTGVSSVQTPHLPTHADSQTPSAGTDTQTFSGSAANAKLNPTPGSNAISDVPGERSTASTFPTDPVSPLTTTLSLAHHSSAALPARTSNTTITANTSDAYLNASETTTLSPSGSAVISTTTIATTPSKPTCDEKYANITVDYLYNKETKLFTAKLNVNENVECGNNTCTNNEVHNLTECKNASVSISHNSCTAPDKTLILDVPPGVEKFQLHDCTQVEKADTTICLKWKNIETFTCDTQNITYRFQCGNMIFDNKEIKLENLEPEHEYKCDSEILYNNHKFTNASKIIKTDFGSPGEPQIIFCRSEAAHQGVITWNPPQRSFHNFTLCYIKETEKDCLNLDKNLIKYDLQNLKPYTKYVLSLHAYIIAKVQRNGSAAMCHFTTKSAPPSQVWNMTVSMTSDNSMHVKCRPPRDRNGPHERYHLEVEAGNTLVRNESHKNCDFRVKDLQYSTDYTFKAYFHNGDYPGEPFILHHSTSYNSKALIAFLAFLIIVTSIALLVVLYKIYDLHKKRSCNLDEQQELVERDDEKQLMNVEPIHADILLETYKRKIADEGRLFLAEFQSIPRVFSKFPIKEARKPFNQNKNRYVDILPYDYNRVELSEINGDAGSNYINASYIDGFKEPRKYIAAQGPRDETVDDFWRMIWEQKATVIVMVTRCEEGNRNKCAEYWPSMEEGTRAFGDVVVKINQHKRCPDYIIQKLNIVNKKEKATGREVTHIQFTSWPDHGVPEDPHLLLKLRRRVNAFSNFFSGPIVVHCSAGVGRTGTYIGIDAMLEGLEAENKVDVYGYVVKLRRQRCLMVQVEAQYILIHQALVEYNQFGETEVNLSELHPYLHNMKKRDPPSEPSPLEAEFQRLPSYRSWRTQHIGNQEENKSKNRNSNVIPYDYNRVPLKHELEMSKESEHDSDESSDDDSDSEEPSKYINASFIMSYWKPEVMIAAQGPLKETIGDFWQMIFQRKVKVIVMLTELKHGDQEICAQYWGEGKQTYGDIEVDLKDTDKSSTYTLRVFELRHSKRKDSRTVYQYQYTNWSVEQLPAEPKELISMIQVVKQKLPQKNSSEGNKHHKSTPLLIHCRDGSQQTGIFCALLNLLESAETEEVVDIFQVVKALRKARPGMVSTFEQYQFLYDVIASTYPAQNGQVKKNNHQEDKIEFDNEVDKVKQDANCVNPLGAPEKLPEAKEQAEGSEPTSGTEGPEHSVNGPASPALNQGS
UniProt Q9BRQ0: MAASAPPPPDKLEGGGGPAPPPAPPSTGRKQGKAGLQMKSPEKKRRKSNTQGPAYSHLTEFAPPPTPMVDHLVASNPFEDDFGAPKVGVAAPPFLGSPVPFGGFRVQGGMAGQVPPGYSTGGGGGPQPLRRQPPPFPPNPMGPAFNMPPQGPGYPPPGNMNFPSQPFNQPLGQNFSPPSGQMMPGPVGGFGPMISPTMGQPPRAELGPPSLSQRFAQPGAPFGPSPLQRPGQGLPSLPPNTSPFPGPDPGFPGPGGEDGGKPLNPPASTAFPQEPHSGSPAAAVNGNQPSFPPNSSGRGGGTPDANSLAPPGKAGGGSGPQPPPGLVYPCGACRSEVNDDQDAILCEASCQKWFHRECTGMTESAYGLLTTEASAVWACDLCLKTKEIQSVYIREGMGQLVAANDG

This is one part of the list.

Compound in this experiment: c1cn2cc(-c3ccc4cn[nH]c4c3)nc(Nc3ccc(N4CCOCC4)cc3)c2n1 [entospletinib]
Nature of the experiment: log2 fold change, soluble protein after heating vs DMSO (PISA); higher = thermal stabilisation; K562 cells, 10 uM, 30 min; active = over 0.2 and 3.5 SD of the protein, either way, in both replicates (recomputed). The gist of the method:
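Thermal stability values are relative to control samples and come from duplicates. They are expressed as log2 fold changes. For measurement, K562 cells (2×10^6 cells/mL) received 10 μM compound for 30 min, and aliquots were heated for 3 min over 48°C-58°C, pooled, and extracted at 4°C in PBS with 0.5% NP-40. Soluble protein, the supernatant after 21,000xg for 90 min, was quantified by TMTpro 16plex LC-MS/MS with equalised channel sums.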
Turning to PTGES2 (UniProt Q9H7Z7), the log2 fold change was inactive: 0.023.

As for PZP (UniProt P20742), the log2 fold change is inactive: 0.199.

Turning to PTCD3 (UniProt Q96EY7), the log2 fold change is inactive: 0.082.

Turning to PVR (UniProt P15151), the log2 fold change is inactive: -0.046.

On to PSD4 (UniProt Q8NDX1), for which the log2 fold change was inactive: 0.128.

Consider PSMA4 (UniProt P25789), for which the log2 fold change is inactive: 0.015.

For PWP2 (UniProt Q15269), the log2 fold change is inactive: 0.044.

On to PTPRC (UniProt P08575), for which the log2 fold change was inactive: -0.005.

In the case of PYGO2 (UniProt Q9BRQ0), the log2 fold change is inactive: 0.066.
